The list is a part of this screen's results and no random one: it is rich in T/C values a quarter to a half above the control, in often repeated tests (any T/C) and in doses without a T/C. Other doses and runs of a compound stand elsewhere. T/C: endpoint of the treated group in % of that of the vehicle group. Schedule codes are those of the source, read here as Q, the interval in days (D) or hours (H), X, the number of doses. Some doses have a count of surviving animals in place of a T/C: the source files T/C as zero there, which appears to mark a toxic dose or a test without result, not a measured value. Survivors were counted at the toxicity check, usually on the fifth day, unless a day is given; later deaths do not show. Some entries were tested several times; the results are listed from low to high.
Test system: CD2F1 mice, P1798 lymphosarcoma sc, tumor weight T/C
Assay: NCI In Vivo Anticancer Drug Screen. Data for tumor model P1798 Lymphosarcoma (subcutaneous) in CD2F1 (CDF1) mice
Conditions: higher T/C = larger tumour
Protocol: The antitumor activity of compounds was measured in mice bearing transplantable tumors. Survival or tumor size were measured and the results are expressed as the measurement made in the treated group (T) divided by the measurement made in the vehicle treated control group (C). The tumor model used in this assay is P1798 Lymphosarcoma (subcutaneous) in CD2F1 (CDF1) mice

[1] = T/C endpoint: mean tumor weight, dose: 1.0 mg/kg/injection, schedule: Q01DX010 (ip), vehicle: saline
[2] = T/C endpoint: mean tumor weight, dose: 100.0 mg/kg/injection, schedule: Q01DX010 (ip), vehicle: saline
[3] = T/C endpoint: mean tumor weight, dose: 200.0 mg/kg/injection, schedule: Q01DX010 (ip), vehicle: saline

Q: O=C1C=CC2(CCC23C=CC(=O)O3)O1 (stereo unspecified) was tested. Which T/C (T/C endpoint: mean tumor weight, dose: 30.0 mg/kg/injection, schedule: Q01DX011 (ip), vehicle: saline, evaluated on day 12) did it give?
A: The T/C was 143 % of control.

Q: And the survivor count (T/C endpoint: mean tumor weight, dose: 150.0 mg/kg/injection, schedule: Q01DX011 (ip), vehicle: saline)?
A: Its survivor count is 0 of 6.

Q: Which survivor count (T/C endpoint: mean tumor weight, dose: 73.0 mg/kg/injection, schedule: Q01DX010 (ip), vehicle: saline) does the source give for N#Cc1ccc(S(N)(=O)=O)cc1 here?
A: Its survivor count is 3 of 6.

Q: And the survivor count (T/C endpoint: mean tumor weight, dose: 111.0 mg/kg/injection, schedule: Q01DX010 (ip), vehicle: saline)?
A: Its survivor count is 0 of 6.

Q: What about the survivor count (T/C endpoint: mean tumor weight, dose: 166.0 mg/kg/injection, schedule: Q01DX010 (ip), vehicle: saline) of the same molecule?
A: The survivor count was 1 of 6.

Q: And the survivor count (T/C endpoint: mean tumor weight, dose: 250.0 mg/kg/injection, schedule: Q01DX010 (ip), vehicle: saline)?
A: The survivor count was 0 of 6.

Q: How did the survivor count (T/C endpoint: mean tumor weight, dose: 80.0 mg/kg/injection, schedule: Q01DX010 (ip), vehicle: saline) turn out when COc1cc(-c2ccc(Nc3ccccc3C(=O)O)c(OC)c2)ccc1N was run?
A: Its survivor count is 3 of 6.

Q: What about the survivor count (T/C endpoint: mean tumor weight, dose: 160.0 mg/kg/injection, schedule: Q01DX010 (ip), vehicle: saline) of the same molecule?
A: The survivor count was 0 of 6.

Q: How did the survivor count (T/C endpoint: mean tumor weight, dose: 60.0 mg/kg/injection, schedule: Q01DX010 (ip), vehicle: saline) turn out when CC(=O)c1ccccc1C was run?
A: Its survivor count is 2 of 6.

Q: Which T/C (T/C endpoint: mean tumor weight, dose: 75.0 mg/kg/injection, schedule: Q01DX010 (sc), vehicle: steroid suspending solution, run until all animals had died) does the source give for CC1C[C@@H]2[C@H]([C@@H](O)C[C@@]3(C)[C@H]2CC[C@]3(O)C(=O)CF)[C@@]2(C)CCC(=O)C=C12 (stereo partly specified) here?
A: Its T/C is 130 % of control.

Q: How did the survivor count (T/C endpoint: mean tumor weight, dose: 400.0 micrograms/kg/injection, schedule: Q01DX010 (ip), vehicle: other) turn out when Nc1nc(N)c2nc(CNc3ccc(C(=O)NC(CCC(=O)O)C(=O)O)cc3)cnc2n1 (stereo unspecified) was run?
A: The survivor count was 2 of 6.

Q: With O=C(NCCCC(NC(=O)OCc1ccccc1)C(=O)NCCCNCCCCNCCCNC(=O)C(CCCNC(=O)OCc1ccccc1)NC(=O)OCc1ccccc1)OCc1ccccc1 (stereo unspecified) as the molecule, how does the T/C (T/C endpoint: mean tumor weight, dose: 0.31 mg/kg/injection, schedule: Q01DX010 (ip), vehicle: saline, evaluated on day 12) read?
A: Its T/C is 130 % of control.

Q: C[C@]12C=CC(=O)C=C1CC[C@H]1[C@@H]3C[C@@H](O)[C@](O)(C(=O)CO)[C@@]3(C)C[C@H](O)[C@@]12F was tested. Which T/C (T/C endpoint: mean tumor weight, dose: 12.5 mg/kg/injection, schedule: Q02DX010 (sc), vehicle: steroid suspending solution, run until all animals had died) did it give?
A: Its T/C is 132 % of control.

Q: And the survivor count (T/C endpoint: mean tumor weight, dose: 50.0 mg/kg/injection, schedule: Q01DX010 (sc), vehicle: steroid suspending solution)?
A: The survivor count was 2 of 6.

Q: What about the survivor count (T/C endpoint: mean tumor weight, dose: 100.0 mg/kg/injection, schedule: Q01DX010 (sc), vehicle: steroid suspending solution) of the same molecule?
A: Its survivor count is 0 of 6 and 3 of 6.

Q: Which T/C (T/C endpoint: mean tumor weight, dose: 16.0 mg/kg/injection, schedule: Q01DX010 (ip), vehicle: saline, evaluated on day 12) does the source give for Nc1nc(SCc2ccccc2)c2[nH]cnc2n1 here?
A: Its T/C is 135 % of control.

Q: What about the survivor count (T/C endpoint: mean tumor weight, dose: 64.0 mg/kg/injection, schedule: Q01DX010 (ip), vehicle: saline) of the same molecule?
A: The survivor count was 1 of 6.

Q: How did the survivor count (T/C endpoint: mean tumor weight, dose: 50.0 mg/kg/injection, schedule: Q01DX011 (ip), vehicle: carboxymethylcellulose (CMC)) turn out when Cc1cc(C(C)(C)C)ccc1O was run?
A: The survivor count was 3 of 6.

Q: How did the survivor count [1] turn out when CSCS(=O)C[C@H](CO)NC(=O)/C=C/c1c(C)[nH]c(=O)[nH]c1=O (stereo partly specified) was run?
A: The survivor count was 0 of 6.

Q: For CN(C)c1nc(N(C)C)nc(N(C)C)n1, which survivor count (T/C endpoint: mean tumor weight, dose: 150.0 mg/kg/injection, schedule: Q01DX010 (ip), vehicle: saline) is on record?
A: Its survivor count is 3 of 6.

Q: For O=C(O)CCCc1ccc(N(CCCl)CCCl)cc1, which survivor count (T/C endpoint: mean tumor weight, dose: 12.5 mg/kg/injection, schedule: Q01DX010 (ip), vehicle: saline) is on record?
A: Its survivor count is 1 of 6.

Q: What about the survivor count (T/C endpoint: mean tumor weight, dose: 25.0 mg/kg/injection, schedule: Q01DX010 (ip), vehicle: saline) of the same molecule?
A: Its survivor count is 0 of 6.

Q: Which results are given for CC(=O)OC(C)(C)/C=C/C(=O)[C@](C)(O)[C@H]1[C@H](O)C[C@@]2(C)[C@@H]3CC=C4[C@@H](C[C@H](O)C(=O)C4(C)C)[C@]3(C)C(=O)C[C@]12C?
A: survivor count (T/C endpoint: mean tumor weight, dose: 0.8 mg/kg/injection, schedule: Q01DX011 (ip), vehicle: carboxymethylcellulose (CMC)): 0 of 4; survivor count (T/C endpoint: mean tumor weight, dose: 1.2 mg/kg/injection, schedule: Q01DX011 (ip), vehicle: carboxymethylcellulose (CMC)): 0 of 4; survivor count (T/C endpoint: mean tumor weight, dose: 1.6 mg/kg/injection, schedule: Q01DX011 (ip), vehicle: carboxymethylcellulose (CMC)): 0 of 4; survivor count (T/C endpoint: mean tumor weight, dose: 3.2 mg/kg/injection, schedule: Q01DX011 (ip), vehicle: carboxymethylcellulose (CMC)): 0 of 4

Q: Which results are given for CC(=O)OC1C=CC(=O)OC1C1OC1C (stereo unspecified)?
A: T/C (T/C endpoint: mean tumor weight, dose: 13.0 mg/kg/injection, schedule: Q01DX011 (ip), vehicle: saline, evaluated on day 12): 134 % of control; survivor count (T/C endpoint: mean tumor weight, dose: 19.0 mg/kg/injection, schedule: Q01DX011 (ip), vehicle: saline): 1 of 6; survivor count (T/C endpoint: mean tumor weight, dose: 29.0 mg/kg/injection, schedule: Q01DX011 (ip), vehicle: saline): 0 of 6; survivor count (T/C endpoint: mean tumor weight, dose: 45.0 mg/kg/injection, schedule: Q01DX011 (ip), vehicle: saline): 0 of 6

Q: For O=C(Nc1ccc(NC2=NCCN2)cc1)c1ccc(C(=O)Nc2ccc(NC3=NCCN3)cc2)cc1, which survivor count (T/C endpoint: mean tumor weight, dose: 16.0 mg/kg/injection, schedule: Q01DX010 (ip), vehicle: saline) is on record?
A: Its survivor count is 1 of 6.

Q: What does the source list for COc1ccc2cc3[n+](cc2c1OC)CCc1cc2c(cc1-3)OCO2?
A: survivor count (T/C endpoint: mean tumor weight, dose: 25.0 mg/kg/injection, schedule: Q01DX011 (ip), vehicle: saline): 0 of 6; survivor count (T/C endpoint: mean tumor weight, dose: 50.0 mg/kg/injection, schedule: Q01DX011 (ip), vehicle: saline): 0 of 6; survivor count (T/C endpoint: mean tumor weight, dose: 75.0 mg/kg/injection, schedule: Q01DX011 (ip), vehicle: saline): 0 of 6

Q: What does the source list for CC(=O)Nc1c(Cl)cc2c(c1Cl)Cc1cc([N+](=O)[O-])ccc1-2?
A: survivor count (T/C endpoint: mean tumor weight, dose: 35.0 mg/kg/injection, schedule: Q01DX011 (ip), vehicle: carboxymethylcellulose (CMC)): 3 of 6; survivor count (T/C endpoint: mean tumor weight, dose: 125.0 mg/kg/injection, schedule: Q01DX011 (ip), vehicle: carboxymethylcellulose (CMC)): 3 of 6

Q: Which survivor count (T/C endpoint: mean tumor weight, dose: 1000.0 mg/kg/injection, schedule: Q01DX010 (ip), vehicle: saline) does the source give for CCOC(N)=O here?
A: The survivor count was 0 of 6.

Q: CN(N=O)C(=O)NC(C=O)C(O)C(O)C(O)CO (stereo unspecified) was tested. Which survivor count (T/C endpoint: mean tumor weight, dose: 135.0 mg/kg/injection, schedule: Q01DX010 (ip), vehicle: saline) did it give?
A: The survivor count was 0 of 6 and 1 of 6.

Q: C[C@]12CC[C@H](O)C[C@@H]1CC[C@@H]1[C@@H]2C(=O)C[C@]2(C)C3=CC(=O)O[C@H]3C[C@@H]12 was tested. Which T/C (T/C endpoint: mean tumor weight, dose: 20.0 mg/kg/injection, schedule: Q01DX010 (sc), vehicle: steroid suspending solution, evaluated on day 12) did it give?
A: Its T/C is 136 % of control.

Q: Which T/C (T/C endpoint: mean tumor weight, dose: 30.0 mg/kg/injection, schedule: Q01DX010 (ip), vehicle: saline, evaluated on day 12) does the source give for Clc1ncnc2nc[nH]c12 here?
A: The T/C was 129 % of control.

Q: With CCCNc1ncnc2c1cnn2C as the molecule, how does the survivor count (T/C endpoint: mean tumor weight, dose: 50.0 mg/kg/injection, schedule: Q01DX010 (ip), vehicle: saline) read?
A: Its survivor count is 1 of 6.

Q: What about the survivor count [2] of the same molecule?
A: Its survivor count is 0 of 6.

Q: And the survivor count [3]?
A: The survivor count was 0 of 6.

Q: For COc1cc(-c2ccc(Nc3ccccc3C(=O)O)c(OC)c2)ccc1Nc1ccccc1C(=O)O, which survivor count [2] is on record?
A: The survivor count was 2 of 6 and 3 of 6.

Q: What about the survivor count [3] of the same molecule?
A: Its survivor count is 0 of 6.

Q: Which survivor count (T/C endpoint: mean tumor weight (est.), dose: 6.25 mg/kg/injection, schedule: Q01DX016 (sc), vehicle: saline) does the source give for CC1=C[C@@H]2[C@H]([C@@H](O)C[C@@]3(C)[C@H]2CC(C)[C@]3(O)C(=O)CO)[C@@]2(C)Cc3cnn(-c4ccccc4)c3C=C12 (stereo partly specified) here?
A: Its survivor count is 0 of 10 on day 24.

Q: What about the survivor count (T/C endpoint: mean tumor weight (est.), dose: 12.5 mg/kg/injection, schedule: Q01DX016 (sc), vehicle: saline) of the same molecule?
A: Its survivor count is 0 of 10 on day 24.

Q: And the survivor count (T/C endpoint: mean tumor weight (est.), dose: 25.0 mg/kg/injection, schedule: Q01DX016 (sc), vehicle: saline)?
A: The survivor count was 0 of 10 on day 24.

Q: With C[C@]12CC[C@H](OC3OC(CO)C(O)C(O)C3O)C[C@H]1CC[C@@H]1[C@@H]2CC[C@]2(C)[C@@H](C3=CCOC3=O)CC[C@]12O (stereo partly specified) as the molecule, how does the survivor count [1] read?
A: Its survivor count is 1 of 6 and 3 of 6.

Q: What about the survivor count (T/C endpoint: mean tumor weight, dose: 2.0 mg/kg/injection, schedule: Q01DX010 (ip), vehicle: saline) of the same molecule?
A: The survivor count was 0 of 6.

Q: And the survivor count (T/C endpoint: mean tumor weight, dose: 4.0 mg/kg/injection, schedule: Q01DX010 (ip), vehicle: saline)?
A: Its survivor count is 0 of 6.

From PubChem BioAssay AID268 (DTP/NCI, 2004)
